PubChem BioAssay AID1671190 (National Center for Advancing Translational Sciences (NCATS), 2021)
In all, about 580,000 compounds went through this assay and about 6,100 (1.1%) were called active. This list was built around the results that the source calls inconclusive (neither active nor inactive); the mix of calls is not that of the screen. Calls come from the whole dose curve; as a rule, active = well fitted inhibition curve with a large enough effect; inconclusive = small, poorly fitted or top-dose-only effect, or another doubt; inactive = no such curve, though single readings can be large or run the other way. Where the call is inconclusive, the potency comes from a doubtful curve fit.

Amino acid sequences for entries named in this document (tags omitted). A change or cut given only in a name is not applied to a line headed by its entry.
UniProt P18054: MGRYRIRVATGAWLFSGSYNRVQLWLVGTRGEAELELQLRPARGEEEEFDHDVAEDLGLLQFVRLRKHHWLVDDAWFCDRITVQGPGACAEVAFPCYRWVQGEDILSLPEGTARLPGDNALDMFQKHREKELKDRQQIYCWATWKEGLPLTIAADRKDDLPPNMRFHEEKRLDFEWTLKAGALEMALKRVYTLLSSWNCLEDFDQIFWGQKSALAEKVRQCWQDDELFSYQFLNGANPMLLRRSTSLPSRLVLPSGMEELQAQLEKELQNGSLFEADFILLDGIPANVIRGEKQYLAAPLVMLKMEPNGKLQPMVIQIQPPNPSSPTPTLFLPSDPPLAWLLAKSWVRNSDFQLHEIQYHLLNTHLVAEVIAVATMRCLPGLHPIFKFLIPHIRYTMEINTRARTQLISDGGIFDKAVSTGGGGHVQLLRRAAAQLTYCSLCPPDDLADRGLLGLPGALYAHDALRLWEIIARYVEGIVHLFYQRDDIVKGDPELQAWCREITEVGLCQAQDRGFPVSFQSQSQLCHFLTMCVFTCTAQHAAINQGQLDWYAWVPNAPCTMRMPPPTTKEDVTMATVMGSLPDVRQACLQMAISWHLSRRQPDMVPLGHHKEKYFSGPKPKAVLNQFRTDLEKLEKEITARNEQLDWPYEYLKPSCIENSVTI

target: Polyunsaturated fatty acid lipoxygenase ALOX12 (Homo sapiens) (UniProt P18054); assay: Primary qHTS assay for inhibitors of human arachidonate 12S-lipoxygenase (ALOX12): Round 2; settings: purified 12hLO, xylenol orange hydroperoxide absorbance; activity change, negative = inhibition: at 108 µM (top of the series) unless noted
Summary of the method: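 Purified human 12hLO (150 nM final) in 25 mM Hepes, 0.01% Triton X-100, pH 7.0 was preincubated 15 min at room temperature with compound. Then 40 uM arachidonic acid was added, 30 min. Hydroperoxide was read by Fe-XO absorbance ratio 573/405 nm.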
% is set by controls: 0 for no effect and ±100 for the full control effect; potency is the fitted concentration of half-maximal effect.

| SMILES | Potency | activity change, negative = inhibition |
| --- | --- | --- |
| COc1cccc(-n2nnc3c(N4CCN(S(=O)(=O)c5ccc(C)c(C)c5)CC4)ncnc32)c1 | inconclusive: 126 µM [inhibitor, single point] |  |
| Cc1ccc(OCCn2nnc3sc4c(c3c2=O)CCC(C)C4)cc1 (stereo not drawn) | inconclusive: 50.1 µM [inhibitor, partial curve, poor fit] |  |
| CCC(C(=O)N1CCC(N2CCCCC2)CC1)n1nc(C)c2sc3ccccc3c2c1=O (stereo not drawn) | inactive |  |
| Cc1nc2ccc([N+](=O)[O-])cc2s1 | inconclusive: 44.7 µM [inhibitor, partial curve, poor fit] |  |
| CCOc1ccc(C(=O)N2CCC(c3noc(-c4ccc(S(=O)(=O)N5CCCC5)cc4)n3)CC2)cc1 | inactive |  |
| Cc1ccccc1NC(=O)CSc1nc(C)c(C)o1 | inconclusive: 79.4 µM [inhibitor, single point] |  |
| COc1cc(/C=C(/C#N)C(=O)c2ccccc2)cc(Cl)c1OC | inconclusive: 17.8 µM [inhibitor, full curve, poor fit] |  |
| N/C(=N\OC(=O)c1cc(-c2ccccc2)nc2ccccc12)c1cccnc1 | inconclusive: 79.4 µM [inhibitor, partial curve, poor fit] |  |
| O=C(CCc1nc2ccccc2s1)NC1CCCC(C(F)(F)F)C1 (stereo not drawn) | inconclusive: 50.1 µM [inhibitor, partial curve, poor fit] |  |
| CCOC(=O)c1cc(-c2cc(OC)c(OC)c(OC)c2)nc2ccccc12 | inconclusive: 44.7 µM [inhibitor, partial curve, poor fit] |  |
| Cc1ccc(Cl)cc1NC(=O)c1cc(=O)[nH]c2ccc(S(=O)(=O)N3CCOCC3)cc12 | inconclusive: 44.7 µM [inhibitor, partial curve, poor fit] |  |
| Cc1sc(NC(=O)C2CCCO2)c(C#N)c1C (stereo not drawn) | inconclusive: 50.1 µM [inhibitor, partial curve, poor fit] |  |
| CCC(=O)N1CCc2cc(S(=O)(=O)Nc3ccc4c(c3)OCCO4)ccc21 | inactive |  |
| CCOc1ccc(NC(=O)c2cc(=O)c3ccc(C)c(C)c3o2)cc1 | inconclusive: 89.1 µM [inhibitor, single point] |  |
| CN(C)C1(CNC(=O)C2CCN(C(=O)c3ccc(F)cc3)CC2)CCCCC1 |  | inconclusive: -32.8% [inhibitor] |
| O=C(O)c1ccccc1SCc1cn2ccccc2n1 | inconclusive: 7.94 µM [inhibitor, full curve, poor fit] |  |
| OC(c1ccccc1)(c1nc(/C=C/c2ccc(C(F)(F)F)cc2)cs1)C(F)(F)F (stereo not drawn) | inactive |  |
| CN1CCN(CC(O)COc2ccc(CN3CC(c4ccccn4)C3)cc2)CC1 (stereo not drawn) | inconclusive: 31.6 µM [inhibitor, single point] |  |
| O=C1CC(c2cccc(Cl)c2)CC2=C1C=Nc1ccccc1N2 (stereo not drawn) | inactive |  |
| Cc1c(Cc2ccccc2)c(=O)oc2cc(OCc3ccc(C(=O)O)cc3)ccc12 | inactive |  |
| COc1ccc(CNC(=O)CSC(=S)N2CCCC2)cc1 | inactive |  |
| CCOC(=O)c1c(C)nc2sc3c(=O)n(-c4ccc(OC)cc4)nnc3c2c1-c1ccc(OC)cc1 | inconclusive: 112 µM [inhibitor, single point] |  |
| COc1ccc(NC(=O)CN2CCc3ccccc3C2)c([N+](=O)[O-])c1 | inconclusive: 50.1 µM [inhibitor, partial curve, poor fit] |  |

| SMILES | Potency | activity change, negative = inhibition |
| --- | --- | --- |
| CC1(C)Cc2c(sc(NC(=O)C(=O)N3CCOCC3)c2C#N)CO1 | inconclusive: 50.1 µM [inhibitor, partial curve, poor fit] |  |
| COc1cccc(C(=O)N/N=C/c2ccc(Oc3ccc([N+](=O)[O-])cn3)c(OC)c2)c1 | inconclusive: 50.1 µM [inhibitor, partial curve, poor fit] |  |
| O=C(COc1ccc(S(=O)(=O)NC2CCCCC2)cc1)NCc1cccnc1 | inactive |  |
| CN1CC[C@]23c4ccccc4N[C@H]1[C@]21CCN(C)[C@H]3Nc2ccccc21 | inactive |  |
| c1ccc(-c2nnn(Cc3csc(-c4ccccc4)n3)n2)cc1 | inactive |  |
| Cc1cc(C(=O)OCC(=O)N2CCOCC2)c2ccccc2n1 | inconclusive: 100 µM [inhibitor, single point] |  |
| O=C(NC[C@H]1OC[C@@H](NC2CCOCC2)[C@@H]1O)c1cccs1 | inactive |  |
| CCOc1ccc(-c2nnc(SCC(=O)NCc3ccccc3)o2)cc1 | inactive |  |
| Cc1ccc(S(=O)(=O)Nc2cc(Cl)c(O)c3ncccc23)cc1 | active: 4.47 µM |  |
| O=C(Cc1ccccc1)NCC1CN(Cc2cccnc2)CC12CN(c1ccccc1)C2 (stereo not drawn) | inactive |  |
| CC(C)N(Cc1ccccc1)C(=O)C1CCN(c2ncnc3c2nc2n3CCCCC2)CC1 | inconclusive: 22.4 µM [inhibitor, partial curve, poor fit] |  |
| O=C(Nc1ccc(-n2cccn2)cc1)C1CCN(Cc2ccccn2)CC1 | inconclusive: 3.55 µM [inhibitor, full curve, poor fit] |  |
| COc1ccc(CC(=O)Nc2nncs2)cc1OC | inconclusive: 5.62 µM [inhibitor, single point] |  |
| Cc1cccc(CN2CCC3(CC2)OC(=O)N(Cc2cccnc2)C3(C)c2ccccc2)c1 (stereo not drawn) | inactive |  |
| Cc1nn(-c2ccccc2)c(C)c1Cc1nc(C(C)C)no1 | inactive |  |
| OCC1OC(Oc2cccc3ccccc23)C(O)C(O)C1O (stereo not drawn) | inactive |  |
| O=C(NNc1ccccc1)C(=O)NNS(=O)(=O)c1ccc(CCCl)cc1 | inconclusive: 1 µM [inhibitor, full curve, poor fit] |  |
| Cc1ccc(-c2nc3c(c(SCC(=O)N4CCCC4)n2)COC(C)(C)C3)cc1 | inconclusive: 100 µM [inhibitor, partial curve, poor fit] |  |
| CC1=NS(=O)(=O)N(Cc2ccccc2)C=C1C(=O)OCc1nc(-c2ccccc2F)no1 | inactive |  |
| O=S(=O)(Nc1ccccc1N1CCOCC1)c1ccc(F)c(Cl)c1 | inconclusive: 22.4 µM [inhibitor, full curve, poor fit] |  |
| O=C(CCc1nc2ccccc2c(=O)[nH]1)Nc1cc(C(F)(F)F)ccc1N1CCCC1 | inconclusive: 126 µM [inhibitor, single point] |  |
| Cc1cc(C)cc(NC(=O)C2=Cc3sc4c(c3CS2)CCCC4)c1 | inconclusive: 50.1 µM [inhibitor, partial curve] |  |
| Cc1c(CCOC(=O)C23CC4(C)CC(C)(CC(C)(C4)C2)C3)sc[n+]1CC(=O)c1ccccc1 | inconclusive: 44.7 µM [inhibitor, partial curve, poor fit] |  |

In the list so far, these have a cyano group:

| SMILES | Potency | activity change, negative = inhibition |
| --- | --- | --- |
| COc1cc(/C=C(/C#N)C(=O)c2ccccc2)cc(Cl)c1OC | inconclusive: 17.8 µM [inhibitor, full curve, poor fit] |  |
| Cc1sc(NC(=O)C2CCCO2)c(C#N)c1C (stereo not drawn) | inconclusive: 50.1 µM [inhibitor, partial curve, poor fit] |  |
| CC1(C)Cc2c(sc(NC(=O)C(=O)N3CCOCC3)c2C#N)CO1 | inconclusive: 50.1 µM [inhibitor, partial curve, poor fit] |  |

(further entries)

| SMILES | Potency | activity change, negative = inhibition |
| --- | --- | --- |
| CN(C)CCCn1c(COc2ccc3cc(Br)ccc3c2)n[nH]c1=S | inconclusive: 44.7 µM [inhibitor, partial curve, poor fit] |  |
| CC(CCN1CCC(C(O)(c2ccccc2)c2ccccc2)CC1)Oc1ccc(Cl)cc1 (stereo not drawn) | inconclusive: 35.5 µM [inhibitor, partial curve, poor fit] |  |
| Cc1ccc(-c2ccc(/C=C(\C#N)C(N)=S)o2)c([N+](=O)[O-])c1 | inconclusive: 50.1 µM [inhibitor, partial curve, poor fit] |  |
| O=C(O)c1ccc(N/N=C/c2cc3ccccc3nc2Cl)cc1 | inactive |  |
| COc1ccc(C(=O)/C=C/c2ccc(F)cc2)c(OC(=O)c2ccccc2C)c1 | inconclusive: 56.2 µM [inhibitor, partial curve, poor fit] |  |
| S=C(Nc1ccccc1)N1CCCCCCC1 | inconclusive: 56.2 µM [inhibitor, partial curve, poor fit] |  |
| Cc1ccccc1CSc1ncc(CO)n1Cc1ccc(F)cc1 | inactive |  |
| Clc1ccccc1-c1nccc(NCc2cccs2)n1 | inconclusive: 79.4 µM [inhibitor, partial curve, poor fit] |  |
| Cc1ccc(CN2CCOCCNC(=O)[C@H]3CCCC[C@H]32)s1 | inactive |  |
| Cc1sc(NC(=O)/C=C/C(=O)O)c(C(N)=O)c1-c1ccc(C(C)(C)C)cc1 | inconclusive: 14.1 µM [inhibitor, partial curve, poor fit] |  |
| NC(=S)N/N=C\c1ccccc1OCc1ccccc1 | inconclusive: 50.1 µM [inhibitor, partial curve, poor fit] |  |
| Cn1c(CN2CCOCC2)nnc1SCC(=O)Nc1ccc2c(c1)OCCO2 | inactive |  |
| CSc1ccc(CN(C)C(=O)c2cc(Cl)c3c(c2)OCCO3)cc1 | inconclusive: 50.1 µM [inhibitor, partial curve, poor fit] |  |
| OC(COc1ccccc1Cl)CN1CCN(CC(O)COc2ccccc2Cl)CC1 (stereo not drawn) | inconclusive: 50.1 µM [inhibitor, partial curve, poor fit] |  |
| COc1ccc(Cc2nc3ccccc3n2Cc2ccccc2F)cc1 | inactive |  |
| COC(=O)c1ccc(Oc2coc3cc(OCc4ccc([N+](=O)[O-])cc4)ccc3c2=O)cc1 | inconclusive: 79.4 µM [inhibitor, single point] |  |
| O=C(c1cc2ccccc2oc1=O)N1CCSC1c1ccc(Cl)cc1 (stereo not drawn) | inconclusive: 10 µM [inhibitor, full curve] |  |
| CCCC(=O)N1Cc2ccccc2CC2(CCCN(Cc3ccccc3)C2)C1 (stereo not drawn) | inconclusive: 89.1 µM [inhibitor, partial curve, poor fit] |  |
| c1ccc(OCc2nn3c(-c4ccco4)nnc3s2)cc1 | inactive |  |
| CCCC1OC(c2ccco2)OCC1CC (stereo not drawn) | inconclusive: 89.1 µM [inhibitor, partial curve, poor fit] |  |
| CCC(=O)Nc1ccc2c(ccn2CCN2CCOCC2)c1 | inconclusive: 5.62 µM [inhibitor, full curve, poor fit] |  |
| NC(=O)CSc1nnc(-c2cc3ccccc3o2)n1Cc1ccccc1 | inactive |  |
